This note sets out measurements from the M2OR odorant receptor database.

Chains of the proteins cited; added tags and fusions are not shown. Chains listed by the source or under a name are the forms on record and can include a tag or linker.
OR1A1 N109K, as listed by the source, stated change not applied: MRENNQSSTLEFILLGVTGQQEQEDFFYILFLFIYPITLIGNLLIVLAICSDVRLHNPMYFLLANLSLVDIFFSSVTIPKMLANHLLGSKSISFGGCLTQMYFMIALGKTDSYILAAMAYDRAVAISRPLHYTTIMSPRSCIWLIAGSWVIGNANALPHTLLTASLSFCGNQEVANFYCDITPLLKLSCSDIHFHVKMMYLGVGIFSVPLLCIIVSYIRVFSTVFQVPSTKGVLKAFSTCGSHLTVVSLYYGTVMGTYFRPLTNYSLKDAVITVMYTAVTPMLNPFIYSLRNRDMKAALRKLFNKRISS
OR1A1 S248F, as listed by the source, stated change not applied: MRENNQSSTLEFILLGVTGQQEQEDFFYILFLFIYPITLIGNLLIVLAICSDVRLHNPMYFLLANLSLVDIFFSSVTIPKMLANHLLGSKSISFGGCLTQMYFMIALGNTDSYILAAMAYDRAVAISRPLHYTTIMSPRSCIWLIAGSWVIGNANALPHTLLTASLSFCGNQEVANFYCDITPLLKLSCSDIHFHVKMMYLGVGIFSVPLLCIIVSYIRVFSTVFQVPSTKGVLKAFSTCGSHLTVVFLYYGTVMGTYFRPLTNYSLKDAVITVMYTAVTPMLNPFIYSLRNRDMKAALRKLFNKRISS
OR1A1 G152A, as listed by the source, stated change not applied: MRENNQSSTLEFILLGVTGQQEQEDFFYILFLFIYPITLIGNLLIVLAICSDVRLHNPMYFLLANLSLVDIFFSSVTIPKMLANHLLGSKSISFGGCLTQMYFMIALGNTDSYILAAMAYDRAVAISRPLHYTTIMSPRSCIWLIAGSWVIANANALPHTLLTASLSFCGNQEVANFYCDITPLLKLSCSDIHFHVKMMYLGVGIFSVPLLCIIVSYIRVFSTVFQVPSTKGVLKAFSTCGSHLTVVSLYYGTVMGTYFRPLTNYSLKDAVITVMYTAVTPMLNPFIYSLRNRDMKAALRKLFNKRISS
OR1A1 T277M, as listed by the source, stated change not applied: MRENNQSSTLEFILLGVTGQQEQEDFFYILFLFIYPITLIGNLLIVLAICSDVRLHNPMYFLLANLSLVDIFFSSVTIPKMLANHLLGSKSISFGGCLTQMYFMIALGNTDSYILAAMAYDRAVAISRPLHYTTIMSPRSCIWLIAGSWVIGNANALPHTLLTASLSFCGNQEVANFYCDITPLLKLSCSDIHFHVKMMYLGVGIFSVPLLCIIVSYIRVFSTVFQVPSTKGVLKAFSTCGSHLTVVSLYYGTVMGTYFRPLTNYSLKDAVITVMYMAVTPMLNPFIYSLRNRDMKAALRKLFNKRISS
OR1A1 T280F, as listed by the source, stated change not applied: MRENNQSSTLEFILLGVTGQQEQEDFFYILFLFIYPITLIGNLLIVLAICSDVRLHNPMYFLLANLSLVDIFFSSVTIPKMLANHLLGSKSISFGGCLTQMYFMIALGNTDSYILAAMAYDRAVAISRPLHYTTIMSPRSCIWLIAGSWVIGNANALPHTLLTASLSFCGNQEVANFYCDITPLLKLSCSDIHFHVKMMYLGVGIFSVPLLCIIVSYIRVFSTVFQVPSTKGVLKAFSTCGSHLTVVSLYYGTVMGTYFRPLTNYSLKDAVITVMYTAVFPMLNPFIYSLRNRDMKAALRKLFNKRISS
OR1A1 S112A, as listed by the source, stated change not applied: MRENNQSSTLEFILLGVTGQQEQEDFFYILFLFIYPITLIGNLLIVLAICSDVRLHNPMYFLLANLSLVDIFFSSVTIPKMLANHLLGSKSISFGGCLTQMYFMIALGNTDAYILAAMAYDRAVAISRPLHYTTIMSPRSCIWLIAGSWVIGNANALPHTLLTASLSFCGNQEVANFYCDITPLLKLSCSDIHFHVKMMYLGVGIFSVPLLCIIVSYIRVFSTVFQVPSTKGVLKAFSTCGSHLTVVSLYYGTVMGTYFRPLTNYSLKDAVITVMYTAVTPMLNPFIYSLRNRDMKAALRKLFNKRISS
OR1A1 T280A, as listed by the source, stated change not applied: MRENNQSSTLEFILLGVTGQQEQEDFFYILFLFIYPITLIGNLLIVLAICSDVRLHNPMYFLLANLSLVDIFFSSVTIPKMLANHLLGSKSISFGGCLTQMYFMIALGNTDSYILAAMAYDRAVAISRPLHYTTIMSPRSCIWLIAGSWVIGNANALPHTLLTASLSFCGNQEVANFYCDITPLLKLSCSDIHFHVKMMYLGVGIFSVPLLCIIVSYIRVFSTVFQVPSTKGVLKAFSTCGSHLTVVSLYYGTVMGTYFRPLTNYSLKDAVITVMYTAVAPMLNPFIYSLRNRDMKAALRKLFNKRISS
OR1A1 G108A, as listed by the source, stated change not applied: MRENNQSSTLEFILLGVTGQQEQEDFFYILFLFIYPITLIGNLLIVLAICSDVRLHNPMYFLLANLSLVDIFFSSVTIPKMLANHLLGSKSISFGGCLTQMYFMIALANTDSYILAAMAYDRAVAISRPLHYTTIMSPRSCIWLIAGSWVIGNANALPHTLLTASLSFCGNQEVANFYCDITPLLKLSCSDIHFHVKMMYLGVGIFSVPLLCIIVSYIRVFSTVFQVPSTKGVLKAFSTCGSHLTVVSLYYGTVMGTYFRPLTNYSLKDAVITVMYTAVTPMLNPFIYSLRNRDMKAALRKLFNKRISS
OR1A1 D111A, as listed by the source, stated change not applied: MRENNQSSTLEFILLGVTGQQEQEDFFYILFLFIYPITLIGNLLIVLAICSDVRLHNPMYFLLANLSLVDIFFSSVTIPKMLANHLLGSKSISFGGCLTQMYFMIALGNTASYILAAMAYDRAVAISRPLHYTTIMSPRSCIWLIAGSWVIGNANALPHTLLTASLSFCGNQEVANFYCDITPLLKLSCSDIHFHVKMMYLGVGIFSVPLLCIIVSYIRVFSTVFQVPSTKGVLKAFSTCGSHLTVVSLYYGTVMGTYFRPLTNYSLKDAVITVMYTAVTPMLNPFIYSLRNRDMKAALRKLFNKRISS
OR1A1 I205V, as listed by the source, stated change not applied: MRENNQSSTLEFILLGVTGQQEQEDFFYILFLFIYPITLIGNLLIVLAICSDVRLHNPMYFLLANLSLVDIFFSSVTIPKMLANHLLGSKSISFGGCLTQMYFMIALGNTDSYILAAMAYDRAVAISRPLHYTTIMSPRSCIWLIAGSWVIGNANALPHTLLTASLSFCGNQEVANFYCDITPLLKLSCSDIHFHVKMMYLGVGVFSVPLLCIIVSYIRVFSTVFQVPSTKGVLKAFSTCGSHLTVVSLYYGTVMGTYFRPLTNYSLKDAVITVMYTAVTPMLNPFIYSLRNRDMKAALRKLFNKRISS
OR1A1 D111S, as listed by the source, stated change not applied: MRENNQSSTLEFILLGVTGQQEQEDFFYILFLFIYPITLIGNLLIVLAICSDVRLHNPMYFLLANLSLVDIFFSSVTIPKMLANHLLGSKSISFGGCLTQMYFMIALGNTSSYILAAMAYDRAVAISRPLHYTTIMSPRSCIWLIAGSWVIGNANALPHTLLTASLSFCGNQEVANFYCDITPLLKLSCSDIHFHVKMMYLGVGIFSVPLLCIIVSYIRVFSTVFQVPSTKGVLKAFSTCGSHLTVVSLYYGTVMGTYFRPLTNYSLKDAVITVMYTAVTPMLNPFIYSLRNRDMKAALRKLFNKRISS
OR1A1 N155S, as listed by the source, stated change not applied: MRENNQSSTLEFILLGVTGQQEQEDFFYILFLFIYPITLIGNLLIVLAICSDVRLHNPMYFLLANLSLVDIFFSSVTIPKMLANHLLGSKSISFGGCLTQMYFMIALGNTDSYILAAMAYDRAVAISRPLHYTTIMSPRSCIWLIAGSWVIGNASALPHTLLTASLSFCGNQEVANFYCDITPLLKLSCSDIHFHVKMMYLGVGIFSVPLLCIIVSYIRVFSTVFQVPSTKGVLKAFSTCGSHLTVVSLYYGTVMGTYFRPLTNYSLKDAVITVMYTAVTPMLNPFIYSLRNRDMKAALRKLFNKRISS
OR1A1 N109D, as listed by the source, stated change not applied: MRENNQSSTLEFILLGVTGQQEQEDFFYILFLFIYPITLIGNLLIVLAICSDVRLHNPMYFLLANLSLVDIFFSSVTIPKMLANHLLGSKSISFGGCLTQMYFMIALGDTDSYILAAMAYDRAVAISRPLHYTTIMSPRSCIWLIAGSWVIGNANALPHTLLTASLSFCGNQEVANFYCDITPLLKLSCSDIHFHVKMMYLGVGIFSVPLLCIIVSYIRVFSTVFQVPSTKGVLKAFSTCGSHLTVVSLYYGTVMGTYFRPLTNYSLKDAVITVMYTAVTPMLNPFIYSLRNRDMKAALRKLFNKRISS

Common to all, as to settings: stereoisomer not certain
In one assay the test system is OR1A1 D111A T280A. In a few lines: (§1)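 Each entry records the cell line, G-protein, co-transfected protein and tags used. Methods varied with the source, often transient luciferase assays in mammalian cell lines. A receptor–molecule pair is called responsive (active) if the original authors judged its signal statistically different from baseline and non-responsive (inactive) otherwise.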

The subject of a further assay is OR1A1 D111A. Put shortly: as §1
A further assay has as its system OR1A1 D111S T280A. In a few lines:
as §1

The test system of a further assay is OR1A1 D111S. In a few lines:
as §1

The next assay deals with OR1A1 G108A G152A I205V. In a few lines:
as §1

Another assay deals with OR1A1 G108A G152A. In a few lines: as §1
The test system of another assay is OR1A1 G108A I205V. In a few lines:
as §1

The next assay concerns OR1A1 G108A N109K. Put shortly: as §1
Another assay concerns OR1A1 G108A. In a few lines: as §1
For the next assay, the system named is OR1A1 G152A I205V. Put shortly:
as §1

In the next assay the test system is OR1A1 G152A. Put shortly: as §1
A further assay deals with OR1A1 I205V. In a few lines: as §1
In a further assay the test system is OR1A1 N109D. Put shortly: as §1
For the next assay, the system named is OR1A1 N109K. Put shortly: as §1
In the next assay the test system is OR1A1 N155S. In a few lines: as §1
A further assay has as its system OR1A1 S112A. Put shortly:
as §1

The next assay concerns OR1A1 S248F. In a few lines: as §1
For another assay, the system named is OR1A1 T277M. Put shortly:
as §1

The test system of the next assay is OR1A1 T280A. Put shortly:
as §1

A further assay relates to OR1A1 T280F. In a few lines: as §1

The entries are a selection whose mix differs from that of the whole data set. Calls are pooled over several reports, among them a noisy single-well screen. The list shows a part of the results.

Regarding `C=C(C)C1CC=C(C)C(=O)C1` (stereo not given), the “odorant receptor agonist call” value with OR1A1 D111A T280A, in the assay on OR1A1 G108A N109K, with OR1A1 N109D, in the assay with OR1A1 N109K, with OR1A1 S112A and in the assay on OR1A1 T280F was “inactive” in each case. The “odorant receptor agonist call” value with OR1A1 D111A, in the assay with OR1A1 D111S T280A, with OR1A1 D111S, in the assay on OR1A1 G108A G152A I205V, with OR1A1 G108A G152A and with OR1A1 G108A I205V was “active” each time. Also, the “odorant receptor agonist call” value in the assay with OR1A1 G108A, in the assay on OR1A1 G152A I205V, with OR1A1 G152A, in the assay with OR1A1 I205V, in the assay with OR1A1 N155S and with OR1A1 S248F was “active” in each case. The “odorant receptor agonist call” value in the assay with OR1A1 T277M and with OR1A1 T280A was “active” each time.
